From the supplement of paper PMC12889115 come the findings set out here.

The test relates to Salmonella enterica serovar Typhimurium SL1344. Nature of the test: bacterial growth OD600 after 18 h with compound and polymyxin B; higher = more bacterial growth (less inhibition). The conditions noted are these: 50 µM, Mueller-Hinton broth.

Each structure is given as a SMILES string. The list shows a part of the results. These are raw signals, not scaled to a control.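 In the initial screen, polymyxin B was used at a concentration that permeabilizes Salmonella's outer membrane but not its inner membrane. Maximum growth was set by DMSO wells with or without polymyxin B. Since plates varied, data were ranked per plate, and compounds giving the lowest OD600 advanced as hits.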

Consider `O=C(c1ccc(N2CCOCC2)nc1)N1CCC(CCn2cccn2)CC1`, for which the “bacterial growth OD600” value (polymyxin B 0.75 µg/mL) came to 0.774.

On to `CCN(CC)C(=O)C1CCCN(C(=O)CC2(c3cccc(F)c3)CC(=O)N(C3CCCC3)C2=O)C1` (centres undefined), for which the “bacterial growth OD600” value (polymyxin B 0.75 µg/mL) is 0.729. For the compound `CCCS(=O)(=O)NC1CC(=O)N(CCc2ccccc2)C1` (centres undefined), where the note is “polymyxin B 1 µg/mL”, the “bacterial growth OD600” value came out at 0.889. With `CCOC(=O)N1CCC(N2CC[C@@H](N(C)CCc3ccccn3)[C@H](O)C2)CC1`, the “bacterial growth OD600” value (polymyxin B 0.75 µg/mL) amounted to 0.886.

On to `CN(C)C(=O)C1CCCN(C2CCN(C3Cc4ccccc4C3)CC2)C1` (centres undefined), for which, for the setting “polymyxin B 0.75 µg/mL”, the “bacterial growth OD600” value was determined as 0.913.

Take `CN(Cc1nccn1C)C(=O)c1csc2nc(-c3ccc(C(F)(F)F)cc3)cn12`: where the note is “polymyxin B 1 µg/mL”, the “bacterial growth OD600” value came out at 0.81. Consider `COc1ccc(CNC(=O)CCC2CCCN(Cc3ccc(C)s3)C2)c(OC)c1` (centres undefined), for which the “bacterial growth OD600” value (polymyxin B 0.75 µg/mL) was found to be 0.814. Still for that read-out and setting: the figure for `CN(Cc1ccon1)c1ccc(-c2nc(Cc3ccc(F)cc3)no2)cn1` is 0.001; for `O=C(c1ccc(N2CCC(NCCC(c3ccccc3)c3ccco3)CC2)cc1)N1CCOCC1` (centres undefined) it is 0.905; for `COCCN1C(=O)NC(Cc2ccc(F)cc2)(C2CCN(C(=O)C3Cc4ccccc4O3)CC2)C1=O` (centres undefined) it is 0.754.

As for `Cc1ccc2c(C)c(C(=O)N(Cc3ccccn3)C[C@@H]3CCC(=O)N3)oc2c1C`, the “bacterial growth OD600” value (polymyxin B 0.75 µg/mL) is 0.735. Regarding `O=C(c1cccc2ccccc12)C1CCCN(C(=O)c2ccc3c(c2)OCO3)C1` (centres undefined), the “bacterial growth OD600” value (polymyxin B 1 µg/mL) was found to be 0.005. The same measure, in the same setting: as for `C=C(C)CN(C)c1ccc(C(=O)N2CCCCC2CCn2cccn2)cn1` (centres undefined), the figure is 0.625. The same measure, in the same setting: the figure for `COc1ccc(C(CC(=O)N(C)Cc2cc(C)no2)c2ccccc2)cc1` (centres undefined) is 0.72; for `Cc1n[nH]cc1C(=O)NC1CC(C)(C)Cc2nc(C(C)(C)C)ncc21` (centres undefined) it is 0.923. Still for that read-out and setting: the figure for `CN1CCC(CN(CCc2ccccc2)Cc2ccccc2F)CC1` is 0.747; for `O[C@@H]1CN(C/C=C/c2ccco2)CC[C@H]1N1CCN(c2ccccn2)CC1` it is 0.892. Regarding `O=C(CCC(=O)c1ccccc1)Nc1cnn(CC(=O)N2CCC(OCc3ccccc3)CC2)c1`, the “bacterial growth OD600” value (polymyxin B 0.75 µg/mL) was 0.749. On to `COc1ccc(C(=O)N2CCCC2)c(OC2CCN(CC(C)c3ccccc3)CC2)c1` (centres undefined), for which the “bacterial growth OD600” value (polymyxin B 1 µg/mL) is 0.907.
